Data reported in patent US5091305A, “Bile acid sulfate sulfatase, process for its preparation and method for assaying bile acid” (Marukin Shoyu Co., Ltd., priority 1988, dated 1992).
Structures can show the parent of a compound that is named as a salt. At least one compound was matched to its structure with a doubt left.

Test system: bile acid sulfate sulfatase
Assay: Activity of the present Enzyme on substrates (coupled β-hydroxysteroid dehydrogenase/NADH assay, absorbance at 340 nm)
Format: biochemical, Pseudomonas testosteroni
Conditions: lithocholic acid 3α-sulfate = 100
Protocol: The physicochemical properties of the present Enzyme are further described below. The activity of the present Enzyme is measured as follows. That is, into a quartz cell are placed 0.1 ml of 2.5 mM aqueous solution of lithocholic acid 3α-sulfate (Sigma), 0.2 ml of 15 mM aqueous solution of β-NAD (Oriental Yeast), 1.0 ml of 0.1M tris-hydrochloric acid buffer solution (pH 8.0) and 1.55 ml of distilled water, and after equilibrating at 30° C., 0.05 ml of β-hydroxysteroid dehydrogenase (Sigma) solution (10 U/ml) and 0.1 ml of a solution of the present Enzyme are sequentially added thereto and the reaction is effected at 30° C., and the increase of the absorbance at 340 nm in the initial stage of the reaction is determined. Under these conditions, the enzyme activity producing 1 μmol of NADH per minute is defined as 1 unit.
(b) Substrate specificity: Acting on 3α-sulfates of nonconjugated bile acids, and 3α-sulfates each of glycine-conjugated and taurine-conjugated bile acids.

## O=[N+]([O-])c1ccc(OS(=O)(=O)O)cc1 [p-Nitrophenyl sulfate]
  Relative activity (substrate specificity): 0%
